# Measured values: PMC8080784
# Sequences of proteins named here, by UniProt entry; tags and fusion partners are left off.
# UniProt P18901: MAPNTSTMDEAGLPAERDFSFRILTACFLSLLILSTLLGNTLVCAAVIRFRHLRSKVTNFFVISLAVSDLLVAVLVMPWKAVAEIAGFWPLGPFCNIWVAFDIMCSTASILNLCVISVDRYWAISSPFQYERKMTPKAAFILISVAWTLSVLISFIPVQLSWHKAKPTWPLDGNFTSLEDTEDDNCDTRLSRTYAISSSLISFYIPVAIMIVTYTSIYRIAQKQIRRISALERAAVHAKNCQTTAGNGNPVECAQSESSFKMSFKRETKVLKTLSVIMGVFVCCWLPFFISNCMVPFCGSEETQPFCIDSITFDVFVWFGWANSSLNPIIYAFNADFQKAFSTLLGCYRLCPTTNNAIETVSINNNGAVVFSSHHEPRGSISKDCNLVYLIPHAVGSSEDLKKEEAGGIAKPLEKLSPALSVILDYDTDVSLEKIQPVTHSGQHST
# These are yes or no findings as the source states them, for the method shown. In cells and extracts the contact can be indirect. Some binding calls cover weakened binding; strength is not graded here.
# Target: Dopamine D1 receptor (rat (endogenous in spinal cord)) (UniProt P18901)
# Assay: co-IP; D1DR antibody or D2DR antibody (10 μg) coupled to NHS-activated magnetic beads; lysate of rat L4–L6 spinal cord in RIPA buffer (10 mM NaF, 30 mM HEPES, 150 mM NaCl, 1% Triton, 0.01% SDS), 4 h at RT; Western blot; CCI rats, also after intrathecal SCH-23390, L-741,626 (20 μg/20 μL) or l-CDL (15 μg/20 μL)
substance,measurement,value
Dopamine D2 receptor (from UniProt P61169-1 1-444),binding,binds
